From WO2022196697A1 (dated 2022)
No constants are given. Whether binding was seen depends on the method and setting. Some results given as binding are weak or reduced against the parent protein; the word gives no strength.

Tests used:
[1] = target: HER2 immunoprecipitated from the membrane fraction of HER2-type breast cancer cells (HER2 solution) (human) (UniProt P04626); test: lectin array (legend of Fig. 2)
[2] = target: HER2 immunoprecipitated from the membrane fraction of HER2-type breast cancer cells (HER2 solution) (human) (UniProt P04626); test: lectin array with immunoprecipitated HER2, with and without PNGase F

B1: UEA-I (protein, UniProt P22972 1-243, looked up)
chain: SDDLSFKFKNFSQNGKDLSFQGDASVIETGVLQLNKVGNNLPDETGGIARYIAPIHIWNCNTGEVASFITSFSFFMETSANPKAATDGLTFFLAPPDSPLRRAGGYFGLFEDTKDNDSSYQTVAVEFDTIGSPVNFDDPGFPHIGIDVNRVKSINAERWNKRYGLNNVANVEIIYEASSKTLTASLTYPSDQTSISVTSIVDLKEILPEWVSVGFSGGTYIGRQATHEVLNWYFTSNLINTNS
[1]
  binding: binds
[2]
  binding: binds
